Here are results for 26 molecules from publication PMC10927090, “Plasmodium falciparum contains functional SCF and CRL4 ubiquitin E3 ligases, and CRL4 is critical for cell division and membrane integrity” (PLOS Pathogens, 2024).

Chains of the proteins cited; added tags and fusions are not shown. Lines headed by an entry give the natural chain unless they say otherwise; changes in a name come on top.
UniProt Q7KQK2: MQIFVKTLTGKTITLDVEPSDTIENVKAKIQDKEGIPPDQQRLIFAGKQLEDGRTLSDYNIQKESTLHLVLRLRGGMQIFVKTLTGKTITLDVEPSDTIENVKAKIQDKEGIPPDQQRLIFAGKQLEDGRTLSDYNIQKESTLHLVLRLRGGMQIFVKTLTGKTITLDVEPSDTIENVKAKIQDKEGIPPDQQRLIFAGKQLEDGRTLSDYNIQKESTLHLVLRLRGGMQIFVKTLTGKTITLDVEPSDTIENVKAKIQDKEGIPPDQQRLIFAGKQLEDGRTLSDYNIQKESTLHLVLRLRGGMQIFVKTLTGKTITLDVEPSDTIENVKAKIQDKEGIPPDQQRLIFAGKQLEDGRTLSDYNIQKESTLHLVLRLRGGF
UniProt Q8IHZ9: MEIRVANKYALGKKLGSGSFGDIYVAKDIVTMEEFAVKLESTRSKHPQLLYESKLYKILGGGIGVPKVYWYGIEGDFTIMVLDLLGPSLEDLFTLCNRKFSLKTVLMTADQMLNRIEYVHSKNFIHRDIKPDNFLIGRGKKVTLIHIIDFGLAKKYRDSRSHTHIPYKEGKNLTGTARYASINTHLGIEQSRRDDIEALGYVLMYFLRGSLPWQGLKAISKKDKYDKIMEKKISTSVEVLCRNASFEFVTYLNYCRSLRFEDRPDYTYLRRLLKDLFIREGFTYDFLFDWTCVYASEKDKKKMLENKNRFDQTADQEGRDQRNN

Where two headings read alike, the source gives them in different places. Results are given in words; binding and its absence hold for the method and conditions named. In cells and extracts the contact can be indirect. These calls come from enrichment with a bait or labelling near it, and not all partners need be listed. For part of these data: No binding means not detected with the bait. For part of these data: Where a sequence is shown, tags or fusion partners need not be part of it.

The target of assay [1] is T1, PfSkp1 with C-terminal GFP-tag (P. falciparum) (UniProt Q8ID38).
T1 sequence: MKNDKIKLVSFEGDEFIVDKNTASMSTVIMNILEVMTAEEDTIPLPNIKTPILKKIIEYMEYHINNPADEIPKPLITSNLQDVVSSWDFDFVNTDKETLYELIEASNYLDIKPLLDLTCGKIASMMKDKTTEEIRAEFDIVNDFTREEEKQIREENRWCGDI
Briefly: affinity purification with mass spectrometry; parasite lysates (10 mM Tris, 0.5 mM EDTA, 100 mM NaCl, 0.5% NP-40, pH 7.5) incubated with GFP-Trap (PfCullin-1/GFP, PfSkp1GFP) or Myc-Trap (PfRbx1myc) beads 2 h at 4°C; LC-MS/MS of eluates; hits exclusive against GFP control or wild type D10, in at least 2 of 3 repeats.

Assay [2] deals with T2, PfCullin-2/cDDHA (P. falciparum) (UniProt C6KTD3).
T2 sequence: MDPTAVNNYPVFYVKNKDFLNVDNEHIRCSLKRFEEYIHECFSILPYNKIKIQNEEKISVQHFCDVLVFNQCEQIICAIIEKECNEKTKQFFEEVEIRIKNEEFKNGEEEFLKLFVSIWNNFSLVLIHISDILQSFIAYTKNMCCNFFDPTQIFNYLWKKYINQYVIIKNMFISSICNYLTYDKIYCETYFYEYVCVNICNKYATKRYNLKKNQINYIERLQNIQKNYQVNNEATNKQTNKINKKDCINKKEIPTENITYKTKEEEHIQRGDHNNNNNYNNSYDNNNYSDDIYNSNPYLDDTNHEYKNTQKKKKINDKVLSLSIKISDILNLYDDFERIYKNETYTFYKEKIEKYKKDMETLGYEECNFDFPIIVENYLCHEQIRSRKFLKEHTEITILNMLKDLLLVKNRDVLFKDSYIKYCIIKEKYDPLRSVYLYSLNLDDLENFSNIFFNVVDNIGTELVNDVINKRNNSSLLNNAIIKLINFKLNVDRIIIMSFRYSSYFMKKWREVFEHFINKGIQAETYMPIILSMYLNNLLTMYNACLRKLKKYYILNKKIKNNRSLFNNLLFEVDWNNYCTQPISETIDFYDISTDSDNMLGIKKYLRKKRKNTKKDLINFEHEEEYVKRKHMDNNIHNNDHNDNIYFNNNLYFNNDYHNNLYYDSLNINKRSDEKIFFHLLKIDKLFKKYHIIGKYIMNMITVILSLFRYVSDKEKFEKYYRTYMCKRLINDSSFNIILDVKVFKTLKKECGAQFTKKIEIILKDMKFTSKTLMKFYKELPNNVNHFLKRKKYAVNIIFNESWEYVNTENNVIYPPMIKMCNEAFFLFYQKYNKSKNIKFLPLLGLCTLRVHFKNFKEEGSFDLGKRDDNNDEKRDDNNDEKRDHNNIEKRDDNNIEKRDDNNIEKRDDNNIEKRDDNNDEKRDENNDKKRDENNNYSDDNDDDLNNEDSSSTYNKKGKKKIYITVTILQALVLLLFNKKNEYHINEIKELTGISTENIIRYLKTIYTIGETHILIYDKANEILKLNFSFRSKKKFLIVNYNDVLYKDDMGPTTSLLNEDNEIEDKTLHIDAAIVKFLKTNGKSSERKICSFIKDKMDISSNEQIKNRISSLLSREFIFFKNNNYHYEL
Briefly: affinity purification with mass spectrometry; PfCul2KDD10 parasite lysate (10 mM Tris-Cl, 150 mM NaCl, 0.5 mM EDTA, 0.1% NP-40, 10% glycerol, pH 7.5) with rabbit anti-HA antibodies overnight, protein A/G magnetic beads; LC-MS/MS of eluates; hits exclusive against wild type D10, in at least 2 of 3 repeats.

Assay [3] addresses T3, PfRbx1 with C-terminal Myc-tag (P. falciparum) (UniProt O77367).
T3 sequence: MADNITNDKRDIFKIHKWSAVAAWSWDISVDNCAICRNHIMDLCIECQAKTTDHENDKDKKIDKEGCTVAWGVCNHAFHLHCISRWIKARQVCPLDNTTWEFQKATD
Briefly: affinity purification with mass spectrometry; parasite lysates (10 mM Tris, 0.5 mM EDTA, 100 mM NaCl, 0.5% NP-40, pH 7.5) incubated with GFP-Trap (PfCullin-1/GFP, PfSkp1GFP) or Myc-Trap (PfRbx1myc) beads 2 h at 4°C; LC-MS/MS of eluates; hits exclusive against GFP control or wild type D10, in at least 2 of 3 repeats.

The target in assay [4] is T4, PfCullin-1/GFP (P. falciparum) (UniProt Q8IAU5).
T4 sequence: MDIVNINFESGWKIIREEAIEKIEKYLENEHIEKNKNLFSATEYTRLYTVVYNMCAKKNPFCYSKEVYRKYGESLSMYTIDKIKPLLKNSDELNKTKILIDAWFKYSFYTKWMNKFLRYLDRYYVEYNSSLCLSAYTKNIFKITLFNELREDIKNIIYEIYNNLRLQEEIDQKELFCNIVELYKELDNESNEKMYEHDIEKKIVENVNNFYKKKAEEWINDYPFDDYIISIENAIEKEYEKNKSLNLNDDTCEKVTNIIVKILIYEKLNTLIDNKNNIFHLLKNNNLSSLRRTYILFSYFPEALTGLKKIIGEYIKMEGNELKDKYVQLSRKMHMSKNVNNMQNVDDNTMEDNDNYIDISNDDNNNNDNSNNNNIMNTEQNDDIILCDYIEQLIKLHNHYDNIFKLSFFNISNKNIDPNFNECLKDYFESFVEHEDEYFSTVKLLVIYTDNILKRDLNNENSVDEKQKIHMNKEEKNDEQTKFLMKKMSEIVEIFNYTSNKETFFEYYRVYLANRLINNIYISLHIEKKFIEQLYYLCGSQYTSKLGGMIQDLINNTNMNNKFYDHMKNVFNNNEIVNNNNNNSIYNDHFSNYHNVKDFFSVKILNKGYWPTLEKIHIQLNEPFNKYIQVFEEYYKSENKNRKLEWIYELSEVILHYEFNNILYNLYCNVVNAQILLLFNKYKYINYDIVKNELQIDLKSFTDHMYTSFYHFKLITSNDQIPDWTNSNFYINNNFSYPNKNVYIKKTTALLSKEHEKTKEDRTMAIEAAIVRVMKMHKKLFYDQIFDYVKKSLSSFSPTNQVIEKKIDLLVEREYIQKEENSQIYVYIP
The description is as above.

Assay [5] has as its target T3, PfRbx1 with C-terminal Myc-tag (P. falciparum). The description is as above. The source holds these as a separate data set.
Assay [6] deals with T1, PfSkp1 with C-terminal GFP-tag (P. falciparum). Described as above. This is another data set of the same source.
Assay [7] has as its target T4, PfCullin-1/GFP (P. falciparum). The assay is described as above. The source holds these as a separate data set.
Assay [8] deals with T5, PfSkp1 with C-terminal GFP-tag (P. falciparum), Q8ID38.
T5 chain: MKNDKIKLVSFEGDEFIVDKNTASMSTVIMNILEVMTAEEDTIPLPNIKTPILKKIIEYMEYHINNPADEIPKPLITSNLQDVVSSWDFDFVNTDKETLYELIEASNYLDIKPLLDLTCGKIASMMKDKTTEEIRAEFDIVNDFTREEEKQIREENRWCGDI
Described as above. The following applies: remark: other sources report otherwise.

On to exported protein PHISTb, for which the binding result in assay [1] was “binds”.

For Polyubiquitin (from UniProt Q7KQK2), the binding entry in assay [1] is listed as “binds”.

Regarding exportin-7, in assay [2], the binding result was “binds”.

In the case of Tubulin gamma chain, the binding entry in assay [3] is reported as “binds”.

Consider DDI1, for which the binding entry in assay [4] and in assay [1] was “binds” throughout.

Take PfNEDD8: the binding entry in assay [2] and in assay [3] was “binds” throughout.

For rhoptry neck protein 3, in assay [2], the binding entry is “binds”.

Take rhoptry neck protein 5: the binding result in assay [2] is listed as “binds”.

Turning to PHISTc, the binding result in assay [2] is reported as “binds”.

In the case of translocon component PTEX88, the binding entry in assay [2] is listed as “binds”.

As to “casein kinase 1 (from UniProt Q8IHZ9 1-324) (enzyme)”, the binding entry in assay [2] is listed as “binds”.

As to regulator of chromosome condensation, the binding entry in assay [3] is on record as “binds”.

For the molecule PfAtg18, the binding result in assay [3] was “binds”.

KAHRP: the binding entry in assay [2] was “binds”.

“P. falciparum ubiquitin carboxy-terminal hydrolase 7 (PfUCH7) (enzyme)”: the binding result in assay [2] is “binds”.

Turning to WD40 repeat protein PfWD40A, in assay [2], the binding result is on record as “binds”.

For putative FBXO1 protein (PfFBXO1), the binding result in assay [1] is “binds”.

In the case of anti-oxidant protein DJ1, the binding result in assay [1] was “binds”.

For the molecule karyopherin alpha, the binding result in assay [2] was “binds”.

WD40 repeat protein PfWD40B: the binding result in assay [2] is “binds”.

“parasite-infected erythrocyte surface protein 2”: in assay [2], the binding result is “binds”.

On to actin related protein, for which the binding entry in assay [3] is “binds”.

With calcyclin binding protein (PfCacyBP), the binding result in assay [1] is reported as “binds”.

B1: PfCullin-1 (protein, UniProt Q8IAU5 1-829)
chain: MDIVNINFESGWKIIREEAIEKIEKYLENEHIEKNKNLFSATEYTRLYTVVYNMCAKKNPFCYSKEVYRKYGESLSMYTIDKIKPLLKNSDELNKTKILIDAWFKYSFYTKWMNKFLRYLDRYYVEYNSSLCLSAYTKNIFKITLFNELREDIKNIIYEIYNNLRLQEEIDQKELFCNIVELYKELDNESNEKMYEHDIEKKIVENVNNFYKKKAEEWINDYPFDDYIISIENAIEKEYEKNKSLNLNDDTCEKVTNIIVKILIYEKLNTLIDNKNNIFHLLKNNNLSSLRRTYILFSYFPEALTGLKKIIGEYIKMEGNELKDKYVQLSRKMHMSKNVNNMQNVDDNTMEDNDNYIDISNDDNNNNDNSNNNNIMNTEQNDDIILCDYIEQLIKLHNHYDNIFKLSFFNISNKNIDPNFNECLKDYFESFVEHEDEYFSTVKLLVIYTDNILKRDLNNENSVDEKQKIHMNKEEKNDEQTKFLMKKMSEIVEIFNYTSNKETFFEYYRVYLANRLINNIYISLHIEKKFIEQLYYLCGSQYTSKLGGMIQDLINNTNMNNKFYDHMKNVFNNNEIVNNNNNNSIYNDHFSNYHNVKDFFSVKILNKGYWPTLEKIHIQLNEPFNKYIQVFEEYYKSENKNRKLEWIYELSEVILHYEFNNILYNLYCNVVNAQILLLFNKYKYINYDIVKNELQIDLKSFTDHMYTSFYHFKLITSNDQIPDWTNSNFYINNNFSYPNKNVYIKKTTALLSKEHEKTKEDRTMAIEAAIVRVMKMHKKLFYDQIFDYVKKSLSSFSPTNQVIEKKIDLLVEREYIQKEENSQIYVYIP
For the molecule B1, the binding entry in assay [5] and in assay [6] was “binds” each time.

B2: PfRbx1 (protein, UniProt O77367 1-107)
chain: MADNITNDKRDIFKIHKWSAVAAWSWDISVDNCAICRNHIMDLCIECQAKTTDHENDKDKKIDKEGCTVAWGVCNHAFHLHCISRWIKARQVCPLDNTTWEFQKATD
Regarding B2, the binding entry in assay [2] and in assay [7] was “binds” each time.

B3: PfRbx1, O77367 1-107 (protein)
chain: MADNITNDKRDIFKIHKWSAVAAWSWDISVDNCAICRNHIMDLCIECQAKTTDHENDKDKKIDKEGCTVAWGVCNHAFHLHCISRWIKARQVCPLDNTTWEFQKATD
B3: the binding entry in assay [8] is “no binding”.
